Data as given in PubChem BioAssay AID504786 (Drosophila RNAi Screening Center, 2011).
The deposit covers about 21,000 reagents; shown is an unselected part of those with a known target gene and a result. 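Primary screen; positive scores mean lost reporter signal, so the sign may be inverted from the usual convention.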 Reagents against one gene are numbered here. A plus sign joins genes that one reagent is predicted to hit.

Screen: 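Knock-downs reducing HIF reporter induction by the iron chelator DFO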 (primary screen)
Cell system: Drosophila S2 cells with a stable HIF luciferase reporter
Knock-down reagent: long dsRNA against Drosophila genes, about 0.2 µg dsRNA per well of a 384-well plate
Timing: three days of knock-down, then 20 h of DFO before reading
Challenge: desferrioxamine (DFO) at 100 µM, an iron chelator that mimics hypoxia, for 20 h
Measured: 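Firefly luciferase driven by the mouse ldh-a hypoxia-response element, measured after 20 h of 100 µM DFO; z-scores per plate, higher means more signal lost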
Scale: z-score: higher = stronger loss of HIF reporter signal

predicted target | dsRNA no. | z-score, replicate 1 | z-score, replicate 2
CG31272 | 1 | -0.1 | -0.4
pk | 1 | -0.3 | -0.5
pk | 2 | -0.2 | 0
Mrp4 | 1 | -0.2 | 0.3
Toll-6 | 1 | -0.1 | 0
GCS2alpha | 1 | -0.5 | -0.7
CG3894 | 1 | -0.2 | -0.1
CG3894 | 2 | 0 | -0.1
CG3894 | 3 | 0.4 | -0.3
plum | 1 | -0.3 | -0.2
CG10589 | 1 | 0 | -0.2
CG12951 | 1 | -0.4 | -0.2
rho-5 | 1 | -0.4 | -0.2
CG13581 | 1 | -0.2 | -0.3
beat-IIIa | 1 | -0.2 | -0.6
beat-IIIa | 2 | 0 | -0.4
beat-IIIa | 3 | -0.3 | -0.5
p120ctn | 1 | -0.3 | -0.2
CG33178 | 1 | -0.3 | 0.5
Tsc1 | 1 | -0.5 | -1.4
CG14573 | 1 | -0.2 | -0.3
Tina-1 | 1 | -0.3 | -0.4
CG33771 | 1 | 0.2 | 0.2
Wdfy2 | 1 | -0.3 | -0.5
dgt1 | 1 | 1.1 | 1.9
CG31735 | 1 | 0 | -0.1
CG5377 | 1 | 0.1 | -0.2
CG13671 | 1 | -0.2 | -0.5
nop5 | 1 | 0.6 | 2.6
DIP-kappa | 1 | -0.3 | 0.1
DIP-kappa | 2 | 0.3 | -0.1
CG6066 | 1 | -0.3 | -0.3
Cpr76Ba | 1 | -0.3 | 0
CG12301 | 1 | 0.2 | 1.4
OS9 | 1 | 0.2 | 0.1
CG8620 | 1 | -0.5 | 0.9
CG14569 | 1 | -0.3 | -0.3
Herc4 | 1 | -0.3 | -0.4
stil | 1 | -0.3 | -0.7
CG14195 | 1 | -0.3 | -0.1
CG16995 | 1 | -0.2 | -0.1
Lapsyn | 1 | -0.3 | -0.6
vvl | 1 | -0.4 | -0.1
Fum1 | 1 | -0.2 | -0.5
Ars2 | 1 | 1.6 | 1.6
CG14495 | 1 | -0.3 | 0
Mayo | 1 | -0.3 | -0.2
hll | 1 | 0 | 0.1
Idgf3 | 1 | -0.3 | -0.5
CG3702 | 1 | -0.4 | -0.5
CG9010 | 1 | -0.3 | 1.6
CG14478 | 1 | -0.3 | 0.9
CG31515 | 1 | -0.3 | 0.8
CG5171 | 1 | -0.2 | -0.3
Cul3 | 1 | 0.4 | 0.3
CG12496 | 1 | -0.4 | 0.1
fzy | 1 | -0.2 | 2.7
CG15395 | 1 | 0.3 | -0.3
CG1354 | 1 | -0.3 | 1
Actbeta | 1 | -0.3 | -0.2
Actbeta | 2 | -0.4 | -0.4
CG3652 | 1 | -0.2 | -0.1
CG6733 | 1 | -0.5 | -0.2
CG9706 | 1 | -0.2 | 0
CG15643 | 1 | -0.1 | -0.4
Dsp1 | 1 | 7.1 | 5.8
Usp30 | 1 | -0.2 | -0.5
tj | 1 | -0.3 | -0.2
CG17147 | 1 | -0.1 | 0.3
spag | 1 | -0.2 | -0.1
CG14079 | 1 | -0.3 | -0.1
Cpr100A | 1 | 0.1 | -0.8
mub | 1 | -0.1 | 0
CG14126 (retired record) | 1 | -0.1 | -0.2
Hem | 1 | 0.1 | 0.7
CG14780 | 1 | -0.2 | -0.9
Rrp1 | 1 | -0.2 | -0.2
how | 1 | 1.8 | 1.1
CG9899 | 1 | -0.3 | 0
CG7011 | 1 | -0.6 | -0.3
CG12986 | 1 | -0.1 | -0.6
CG1544 | 1 | -0.2 | -0.1
CG2852 | 1 | -0.3 | -0.5
hang | 1 | -0.2 | 1.7
hang | 2 | 1.5 | -0.2
Jhbp7 | 1 | -0.3 | -0.2
Dnaaf4 | 1 | -0.4 | -0.6
Grip91 | 1 | 0.2 | 0.5
Cipc | 1 | -0.3 | -0.4
Cipc | 2 | -0.5 | 0
CG11123 | 1 | -0.2 | -0.4
SIFa | 1 | -0.1 | -0.4
Coprox | 1 | 0.8 | -0.4
CG15564 | 1 | 0.1 | 0.7
CG10068 | 1 | -0.3 | -0.5
Prx2 | 1 | -0.3 | -0.3
CG13791 (retired record) | 1 | 0 | -0.2
Art4 | 1 | -0.2 | -0.3
Lcch3 | 1 | -0.3 | -0.3
CG31274 + MESK4 | 1 | -0.1 | -0.1
Neurochondrin | 1 | -0.4 | -0.4
DCX-EMAP | 1 | -0.3 | 0.3
DCX-EMAP | 2 | 0.7 | 0.6
skl | 1 | -0.3 | -0.2
p115 | 1 | -0.4 | 0.1
CG17660 | 1 | -0.2 | -0.4
